Test results taken from the supplement of paper PMC10849652.
Some of the results follow.

Amino acid sequences for entries named in this document (tags omitted). A change or cut given only in a name is not applied to a line headed by its entry.
UniProt Q14766: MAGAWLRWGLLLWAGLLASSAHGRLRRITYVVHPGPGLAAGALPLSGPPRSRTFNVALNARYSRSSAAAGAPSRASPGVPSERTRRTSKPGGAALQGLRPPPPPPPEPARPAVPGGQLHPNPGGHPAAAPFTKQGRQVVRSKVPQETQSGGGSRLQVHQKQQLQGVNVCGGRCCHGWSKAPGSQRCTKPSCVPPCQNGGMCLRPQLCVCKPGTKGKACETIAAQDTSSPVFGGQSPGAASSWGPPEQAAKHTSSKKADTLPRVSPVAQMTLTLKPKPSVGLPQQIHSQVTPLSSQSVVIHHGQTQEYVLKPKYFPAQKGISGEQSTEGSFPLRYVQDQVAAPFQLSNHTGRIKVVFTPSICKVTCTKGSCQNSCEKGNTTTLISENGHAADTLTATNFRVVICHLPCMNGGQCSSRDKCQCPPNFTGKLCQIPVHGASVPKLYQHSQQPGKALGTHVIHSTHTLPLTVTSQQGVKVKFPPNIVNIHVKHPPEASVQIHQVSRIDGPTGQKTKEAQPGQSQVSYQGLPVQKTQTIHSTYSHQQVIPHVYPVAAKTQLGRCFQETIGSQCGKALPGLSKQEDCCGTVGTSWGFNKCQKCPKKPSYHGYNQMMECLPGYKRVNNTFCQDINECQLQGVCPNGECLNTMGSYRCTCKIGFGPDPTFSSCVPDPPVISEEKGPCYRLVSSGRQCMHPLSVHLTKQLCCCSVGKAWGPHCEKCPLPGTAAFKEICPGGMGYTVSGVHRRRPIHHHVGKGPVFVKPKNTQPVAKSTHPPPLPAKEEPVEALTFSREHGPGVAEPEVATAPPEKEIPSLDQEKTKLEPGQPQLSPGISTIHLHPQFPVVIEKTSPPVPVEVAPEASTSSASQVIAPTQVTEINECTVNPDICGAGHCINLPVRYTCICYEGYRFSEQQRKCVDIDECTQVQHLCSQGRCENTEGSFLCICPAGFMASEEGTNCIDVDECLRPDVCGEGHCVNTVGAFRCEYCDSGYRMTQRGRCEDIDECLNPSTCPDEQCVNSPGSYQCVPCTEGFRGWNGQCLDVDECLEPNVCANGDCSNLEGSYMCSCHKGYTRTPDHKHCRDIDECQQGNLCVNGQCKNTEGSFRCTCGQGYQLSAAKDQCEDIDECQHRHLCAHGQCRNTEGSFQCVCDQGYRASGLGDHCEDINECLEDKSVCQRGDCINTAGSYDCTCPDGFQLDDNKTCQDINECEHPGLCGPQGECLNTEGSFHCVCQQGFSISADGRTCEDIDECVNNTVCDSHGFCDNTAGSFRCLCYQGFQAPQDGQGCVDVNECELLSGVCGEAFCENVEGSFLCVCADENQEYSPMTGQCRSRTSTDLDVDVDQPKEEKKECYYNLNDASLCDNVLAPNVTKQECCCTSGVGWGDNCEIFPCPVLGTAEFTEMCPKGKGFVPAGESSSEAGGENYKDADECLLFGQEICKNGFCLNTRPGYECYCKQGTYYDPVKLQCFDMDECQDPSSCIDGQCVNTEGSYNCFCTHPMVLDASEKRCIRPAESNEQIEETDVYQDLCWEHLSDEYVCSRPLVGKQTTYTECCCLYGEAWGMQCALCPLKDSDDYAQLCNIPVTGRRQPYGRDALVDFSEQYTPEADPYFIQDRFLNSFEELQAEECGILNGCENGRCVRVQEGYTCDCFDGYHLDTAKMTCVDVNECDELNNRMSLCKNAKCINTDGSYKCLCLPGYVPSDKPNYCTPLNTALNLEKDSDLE
UniProt Q13233: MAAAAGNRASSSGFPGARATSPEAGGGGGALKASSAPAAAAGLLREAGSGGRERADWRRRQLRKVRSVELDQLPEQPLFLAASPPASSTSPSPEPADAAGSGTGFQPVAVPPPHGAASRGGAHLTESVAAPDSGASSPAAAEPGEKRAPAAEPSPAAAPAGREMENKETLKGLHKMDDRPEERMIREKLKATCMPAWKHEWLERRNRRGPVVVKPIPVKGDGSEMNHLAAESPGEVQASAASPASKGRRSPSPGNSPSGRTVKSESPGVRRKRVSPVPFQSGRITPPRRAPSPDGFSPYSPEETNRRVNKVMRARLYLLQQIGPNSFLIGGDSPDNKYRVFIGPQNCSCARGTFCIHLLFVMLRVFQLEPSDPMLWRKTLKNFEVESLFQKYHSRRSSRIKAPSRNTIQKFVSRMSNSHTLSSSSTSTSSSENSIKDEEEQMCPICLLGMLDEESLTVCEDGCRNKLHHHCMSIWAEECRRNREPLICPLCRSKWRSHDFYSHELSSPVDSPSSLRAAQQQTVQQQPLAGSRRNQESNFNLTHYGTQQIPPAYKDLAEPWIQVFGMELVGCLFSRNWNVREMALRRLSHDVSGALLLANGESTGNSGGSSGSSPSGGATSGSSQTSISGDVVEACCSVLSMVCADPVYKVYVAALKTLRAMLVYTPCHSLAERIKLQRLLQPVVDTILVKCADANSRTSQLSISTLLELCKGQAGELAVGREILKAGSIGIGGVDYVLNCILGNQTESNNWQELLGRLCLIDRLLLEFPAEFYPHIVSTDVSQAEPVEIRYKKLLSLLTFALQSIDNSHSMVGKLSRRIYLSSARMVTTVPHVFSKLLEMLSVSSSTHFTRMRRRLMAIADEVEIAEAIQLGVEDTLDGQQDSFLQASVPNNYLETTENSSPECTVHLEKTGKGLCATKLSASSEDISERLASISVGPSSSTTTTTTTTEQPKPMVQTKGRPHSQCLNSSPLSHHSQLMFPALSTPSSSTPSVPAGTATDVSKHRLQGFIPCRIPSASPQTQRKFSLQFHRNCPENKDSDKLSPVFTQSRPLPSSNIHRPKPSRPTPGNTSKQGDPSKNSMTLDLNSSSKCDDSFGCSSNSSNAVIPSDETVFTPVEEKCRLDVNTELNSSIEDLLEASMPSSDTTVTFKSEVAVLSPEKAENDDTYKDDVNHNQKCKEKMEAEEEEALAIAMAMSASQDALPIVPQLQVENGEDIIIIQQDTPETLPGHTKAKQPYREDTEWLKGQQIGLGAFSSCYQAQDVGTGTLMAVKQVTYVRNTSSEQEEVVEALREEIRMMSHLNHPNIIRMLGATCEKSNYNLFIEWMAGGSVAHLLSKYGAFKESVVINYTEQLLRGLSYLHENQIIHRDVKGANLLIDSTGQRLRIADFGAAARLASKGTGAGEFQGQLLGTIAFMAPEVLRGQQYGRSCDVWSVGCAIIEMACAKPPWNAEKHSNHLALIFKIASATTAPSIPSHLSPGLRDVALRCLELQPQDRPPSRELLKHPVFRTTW
UniProt Q9HAY2: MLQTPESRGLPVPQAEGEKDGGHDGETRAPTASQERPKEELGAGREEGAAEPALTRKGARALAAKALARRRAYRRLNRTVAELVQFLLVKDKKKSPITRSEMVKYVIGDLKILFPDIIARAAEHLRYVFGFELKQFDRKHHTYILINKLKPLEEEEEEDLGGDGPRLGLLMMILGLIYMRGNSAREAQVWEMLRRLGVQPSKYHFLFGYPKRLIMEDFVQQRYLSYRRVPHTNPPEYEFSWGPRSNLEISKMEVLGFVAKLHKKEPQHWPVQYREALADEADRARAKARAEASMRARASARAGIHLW
UniProt Q9BPZ7, whole entry, looked up: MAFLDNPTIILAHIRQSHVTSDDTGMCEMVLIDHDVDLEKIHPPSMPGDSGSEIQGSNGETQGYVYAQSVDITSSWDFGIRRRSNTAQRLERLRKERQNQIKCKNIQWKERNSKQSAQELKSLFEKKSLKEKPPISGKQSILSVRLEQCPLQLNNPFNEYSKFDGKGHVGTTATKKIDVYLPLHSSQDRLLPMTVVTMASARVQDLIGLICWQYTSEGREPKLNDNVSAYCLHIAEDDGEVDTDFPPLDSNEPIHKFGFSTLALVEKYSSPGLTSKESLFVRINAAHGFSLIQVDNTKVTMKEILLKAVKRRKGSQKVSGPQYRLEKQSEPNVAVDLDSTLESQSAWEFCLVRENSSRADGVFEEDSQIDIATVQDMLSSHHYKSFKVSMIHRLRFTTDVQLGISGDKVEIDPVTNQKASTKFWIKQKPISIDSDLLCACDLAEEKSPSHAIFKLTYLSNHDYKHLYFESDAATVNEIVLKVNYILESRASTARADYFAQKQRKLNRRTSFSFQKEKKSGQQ
UniProt P43360, whole entry, looked up: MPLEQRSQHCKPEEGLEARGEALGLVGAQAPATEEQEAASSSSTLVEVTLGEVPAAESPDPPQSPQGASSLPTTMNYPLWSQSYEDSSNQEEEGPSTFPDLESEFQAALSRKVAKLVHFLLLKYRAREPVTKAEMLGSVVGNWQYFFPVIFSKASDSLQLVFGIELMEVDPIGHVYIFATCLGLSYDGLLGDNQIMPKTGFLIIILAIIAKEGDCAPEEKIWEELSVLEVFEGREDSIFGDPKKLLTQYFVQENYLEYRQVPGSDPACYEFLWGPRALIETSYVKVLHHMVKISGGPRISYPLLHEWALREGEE
UniProt P43356, whole entry, looked up: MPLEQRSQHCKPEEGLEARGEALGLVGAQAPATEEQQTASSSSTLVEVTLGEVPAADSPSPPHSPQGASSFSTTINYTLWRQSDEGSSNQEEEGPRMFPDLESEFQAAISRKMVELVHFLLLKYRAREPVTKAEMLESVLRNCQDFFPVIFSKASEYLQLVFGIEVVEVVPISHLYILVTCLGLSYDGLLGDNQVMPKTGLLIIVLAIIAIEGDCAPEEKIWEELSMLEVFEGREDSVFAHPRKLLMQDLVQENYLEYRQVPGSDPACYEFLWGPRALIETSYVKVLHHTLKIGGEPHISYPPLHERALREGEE
UniProt Q9Y4F3: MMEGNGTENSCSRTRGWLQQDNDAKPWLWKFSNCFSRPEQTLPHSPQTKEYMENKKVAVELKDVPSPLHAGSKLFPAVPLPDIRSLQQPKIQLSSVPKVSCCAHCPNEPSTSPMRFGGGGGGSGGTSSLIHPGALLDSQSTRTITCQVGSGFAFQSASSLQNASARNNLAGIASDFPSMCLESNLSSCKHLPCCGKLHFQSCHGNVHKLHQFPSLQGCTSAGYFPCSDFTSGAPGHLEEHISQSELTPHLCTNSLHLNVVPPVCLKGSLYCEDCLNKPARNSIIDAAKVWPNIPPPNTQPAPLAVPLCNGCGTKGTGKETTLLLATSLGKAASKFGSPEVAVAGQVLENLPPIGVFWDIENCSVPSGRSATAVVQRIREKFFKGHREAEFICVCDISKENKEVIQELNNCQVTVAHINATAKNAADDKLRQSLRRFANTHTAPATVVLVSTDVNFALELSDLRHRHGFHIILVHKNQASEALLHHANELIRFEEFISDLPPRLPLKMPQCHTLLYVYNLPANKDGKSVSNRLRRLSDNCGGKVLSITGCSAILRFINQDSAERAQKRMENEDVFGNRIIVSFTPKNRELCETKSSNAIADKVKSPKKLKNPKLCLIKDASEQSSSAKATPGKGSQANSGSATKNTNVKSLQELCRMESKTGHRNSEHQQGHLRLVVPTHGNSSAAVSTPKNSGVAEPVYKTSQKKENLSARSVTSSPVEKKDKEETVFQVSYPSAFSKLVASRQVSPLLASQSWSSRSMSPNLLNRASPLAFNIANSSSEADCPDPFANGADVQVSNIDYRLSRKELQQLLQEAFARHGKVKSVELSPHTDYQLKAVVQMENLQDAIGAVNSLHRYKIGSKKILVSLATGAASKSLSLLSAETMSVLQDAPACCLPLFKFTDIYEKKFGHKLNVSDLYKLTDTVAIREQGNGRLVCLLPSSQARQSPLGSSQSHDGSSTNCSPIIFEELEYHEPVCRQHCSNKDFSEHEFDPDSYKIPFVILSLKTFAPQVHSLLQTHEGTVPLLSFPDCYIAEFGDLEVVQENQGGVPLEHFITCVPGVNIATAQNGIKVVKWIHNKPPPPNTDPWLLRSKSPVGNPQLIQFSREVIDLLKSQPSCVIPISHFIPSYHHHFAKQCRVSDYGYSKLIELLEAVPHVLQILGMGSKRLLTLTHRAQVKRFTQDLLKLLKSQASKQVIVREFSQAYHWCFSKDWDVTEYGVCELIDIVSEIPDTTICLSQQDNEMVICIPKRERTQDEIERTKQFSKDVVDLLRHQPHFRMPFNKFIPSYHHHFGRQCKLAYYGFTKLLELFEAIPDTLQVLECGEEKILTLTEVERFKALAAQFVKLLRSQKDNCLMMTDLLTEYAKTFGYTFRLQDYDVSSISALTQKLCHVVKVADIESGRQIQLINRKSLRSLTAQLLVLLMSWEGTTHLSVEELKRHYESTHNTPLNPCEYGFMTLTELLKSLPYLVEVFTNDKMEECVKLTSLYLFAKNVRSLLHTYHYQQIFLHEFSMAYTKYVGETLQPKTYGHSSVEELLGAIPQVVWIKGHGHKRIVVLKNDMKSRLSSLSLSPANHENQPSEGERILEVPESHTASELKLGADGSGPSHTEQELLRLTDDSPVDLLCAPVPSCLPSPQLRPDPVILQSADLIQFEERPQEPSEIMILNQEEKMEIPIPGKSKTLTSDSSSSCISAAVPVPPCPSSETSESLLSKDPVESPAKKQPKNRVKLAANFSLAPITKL
UniProt Q14210: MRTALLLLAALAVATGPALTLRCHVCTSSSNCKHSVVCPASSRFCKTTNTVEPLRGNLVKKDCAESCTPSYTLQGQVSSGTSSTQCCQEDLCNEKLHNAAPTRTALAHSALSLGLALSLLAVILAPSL

What was measured:
Assay in all cases: log2 fold change, soluble protein after heating vs DMSO (PISA); higher = thermal stabilisation; K562 lysate, 10 uM; active = over 0.2 and 3.5 SD of the protein, either way, in both replicates (recomputed)
pictilisib = compound: CS(=O)(=O)N1CCN(Cc2cc3nc(-c4cccc5[nH]ncc45)nc(N4CCOCC4)c3s2)CC1 [pictilisib]
Procedure, shortened: (§1)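 Thermal stability, expressed as log-two fold change relative to solvent controls, is given from duplicates. Crude K562 extract in PBS pH 7.4 with 1 mM MgCl2, at 1 mg/mL protein, was treated with 10 μM compound for 30 min and heated in aliquots for 3 min across 48°C-58°C. After pooling, adjustment to 0.5% NP-40 at 4°C and centrifugation at 21,000xg for 90 min, supernatant protein was measured by TMTpro 16plex LC-MS/MS with channel sums equalised.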

[1] = compound: C[C@H](C1=CC=C(C=C1)C(=O)NC2=C3C=CNC3=NC=C2)N
Procedure, shortened: as §1

duvelisib = compound: C[C@H](Nc1ncnc2nc[nH]c12)c1cc2cccc(Cl)c2c(=O)n1-c1ccccc1 [duvelisib]
Procedure, shortened: as §1

gandotinib = compound: Cc1cc(Nc2cc(CN3CCOCC3)c3nc(C)c(Cc4ccc(Cl)cc4F)n3n2)n[nH]1 [gandotinib]
Procedure, shortened: as §1

bafetinib = compound: Cc1ccc(NC(=O)c2ccc(CN3CC[C@H](N(C)C)C3)c(C(F)(F)F)c2)cc1Nc1nccc(-c2cncnc2)n1 [bafetinib]
Procedure, shortened: as §1

[2] = compound: Cc1cccc(CC(=O)N2CCc3c2ccc(-c2cn(C)c4ncnc(N)c24)c3F)n1
Procedure, shortened: as §1

dasatinib = compound: Cc1nc(Nc2ncc(C(=O)Nc3c(C)cccc3Cl)s2)cc(N2CCN(CCO)CC2)n1 [dasatinib]
Procedure, shortened: as §1

[3] = compound: Cn1cc(-c2ccc3c(c2)CCN3C(=O)Cc2cccc(C(F)(F)F)c2)c2c(N)ncnc21
Procedure, shortened: as §1

tozasertib = compound: Cc1cc(Nc2cc(N3CCN(C)CC3)nc(Sc3ccc(NC(=O)C4CC4)cc3)n2)n[nH]1 [tozasertib]
Procedure, shortened: as §1

nilotinib = compound: Cc1cn(-c2cc(NC(=O)c3ccc(C)c(Nc4nccc(-c5cccnc5)n4)c3)cc(C(F)(F)F)c2)cn1 [nilotinib]
Procedure, shortened: as §1

[4] = compound: Cc1nc(Nc2n[nH]c3c2CN(C(=O)N[C@H](CN(C)C)c2ccccc2)C3(C)C)c2sccc2n1
Procedure, shortened: as §1

[5] = compound: Cc1ncc(-c2ccnc(Nc3ccc(S(C)(=O)=O)cc3)n2)n1C(C)C
Procedure, shortened: as §1

tipifarnib = compound: Cn1cncc1[C@@](N)(c1ccc(Cl)cc1)c1ccc2c(c1)c(-c1cccc(Cl)c1)cc(=O)n2C [tipifarnib]
Procedure, shortened: as §1

[6] = compound: NC1(c2ccc(-c3nc4ccn5c(=O)[nH]nc5c4cc3-c3ccccc3)cc2)CCC1
Procedure, shortened: as §1

crizotinib = compound: C[C@@H](Oc1cc(-c2cnn(C3CCNCC3)c2)cnc1N)c1c(Cl)ccc(F)c1Cl [crizotinib]
Procedure, shortened: as §1

doramapimod = compound: Cc1ccc(-n2nc(C(C)(C)C)cc2NC(=O)Nc2ccc(OCCN3CCOCC3)c3ccccc23)cc1 [doramapimod]
Procedure, shortened: as §1

quisinostat = compound: Cn1cc(CNCC2CCN(c3ncc(C(=O)NO)cn3)CC2)c2ccccc21 [quisinostat]
Procedure, shortened: as §1

[7] = compound: NC(=O)Nc1cc(-c2cccc(F)c2)sc1C(=O)N[C@H]1CCCNC1
Procedure, shortened: as §1

lapatinib = compound: CS(=O)(=O)CCNCc1ccc(-c2ccc3ncnc(Nc4ccc(OCc5cccc(F)c5)c(Cl)c4)c3c2)o1 [lapatinib]
Procedure, shortened: as §1

[8] = compound: NC(=O)c1cnc(N[C@@H]2CCCC[C@@H]2N)nc1Nc1cccc(-n2nccn2)c1
Procedure, shortened: as §1

Measured: log2 fold change

MAP3K8 (UniProt P41279)
inactive: pictilisib -0.23 | [1] -0.131 | duvelisib 0.013 | gandotinib 0.13 | bafetinib -0.115 | [2] -0.025 | dasatinib -0.156 | [3] 0.118

MARCHF3 (UniProt Q86UD3)
inactive: [1] -0.164 | gandotinib 0.071 | tozasertib 0.013 | [2] 0.041

LTBP1 isoform 4 (UniProt Q14766)
inactive: pictilisib -0.157 | [1] -0.091 | duvelisib -0.306 | gandotinib 0.106 | tozasertib -0.078 | bafetinib 0.02 | [2] 0.206 | nilotinib 0.144 | [4] -0.134 | dasatinib -0.089 | [5] 0.248 | [3] -0.005 | tipifarnib -0.119 | [6] 0.056

MAP3K1 (UniProt Q13233)
inactive: crizotinib 0.163 | [1] -0.07 | gandotinib 0.204 | tozasertib -0.01 | doramapimod 0.032 | [2] -0.086 | nilotinib -0.042 | [4] 0.107 | [5] 0.076 | quisinostat -0.02 | tipifarnib -0.02 | [7] 0.101

MAGEF1 (UniProt Q9HAY2)
inactive: lapatinib -0.149 | duvelisib 0.039 | dasatinib 0.11 | [3] -0.041 | [8] 0.034 | [6] -0.483

LYRM1 (UniProt O43325)
inactive: crizotinib -0.281 | [1] -0.3 | duvelisib -0.036 | gandotinib -0.104 | doramapimod -0.02 | [2] -0.261 | dasatinib -0.039 | [3] -0.061 | quisinostat 0.198 | [7] 0.139 | [6] 0.083

MAPKAP1 (UniProt Q9BPZ7)
inactive: crizotinib 0.02 | duvelisib -0.192 | tozasertib 0.113 | doramapimod -0.029 | nilotinib 0.105 | [4] -0.118 | dasatinib -0.085 | [5] 0.083 | [3] -0.003 | quisinostat -0.087 | tipifarnib -0.056 | [7] 0.042 | [6] -0.093

MARVELD1 (UniProt Q9BSK0)
inactive: pictilisib 0.025 | [1] -0.052 | duvelisib 0.072 | gandotinib 0.273 | bafetinib -0.138 | [2] 0.231 | dasatinib 0.165 | [3] -0.138 | [6] 0.066

MAGEA6 (UniProt P43360)
inactive: crizotinib -0.148 | tozasertib 0.068 | doramapimod -0.068 | quisinostat -0.068 | [7] 0.193 | [6] -0.107

MAGEA2 (UniProt P43356)
inactive: duvelisib 0.065 | tozasertib 0.134 | dasatinib 0.056 | [3] 0.164

MAGED4 isoform 4 (UniProt Q96JG8)
inactive: [1] -0.201 | gandotinib 0.313 | [2] 0.376

MAP3K4 isoform 2 (UniProt Q9Y6R4)
inactive: crizotinib 0.044 | doramapimod -0.007 | quisinostat 0.009 | [7] 0.112

MAGEB10 (UniProt Q96LZ2)
inactive: [1] 0.233 | gandotinib 0.009 | [2] 0.093

MAP3K3 isoform 2 (UniProt Q99759)
inactive: duvelisib 0.001 | tozasertib 0.028 | doramapimod -0.077 | nilotinib -0.122 | [4] -0.002 | dasatinib 0.189 | [5] -0.016 | [3] -0.064 | quisinostat 0.057 | tipifarnib -0.003 | [7] 0.092 | [6] -0.123

MAPK12 (UniProt P53778)
active: [1] 0.868 | [3] 0.375
inactive: pictilisib 0.059 | duvelisib -0.061 | gandotinib -0.15 | tozasertib 0.248 | bafetinib 0 | [2] -0.163 | nilotinib 0.082 | [4] 0.048 | dasatinib -0.057 | [5] 0.085 | quisinostat 0.051 | tipifarnib -0.005 | [7] -0.015 | [6] -0.044

MAP3K2 (UniProt Q9Y2U5)
inactive: pictilisib -0.018 | crizotinib -0.132 | [1] -0.099 | duvelisib 0.115 | gandotinib 0.146 | tozasertib -0.138 | doramapimod -0.033 | bafetinib -0.13 | [2] 0.214 | dasatinib 0.218 | [3] -0.079 | quisinostat -0.21 | [7] 0.124 | [6] 0.018

LYL1 (UniProt P12980)
inactive: pictilisib -0.158 | crizotinib -0.019 | [1] -0.205 | gandotinib 0.079 | doramapimod -0.104 | bafetinib -0.123 | [2] 0.129 | quisinostat -0.101 | [7] 0.076 | [6] 0.131

MACF1, A0A0A6YYJ5
inactive: pictilisib 0.013 | crizotinib -0.019 | [1] -0.042 | duvelisib 0.014 | gandotinib -0.01 | tozasertib -0.108 | doramapimod -0.022 | bafetinib -0.051 | [2] 0.068 | nilotinib -0.005 | [4] -0.065 | dasatinib 0.018 | [5] -0.232 | [3] 0.004 | quisinostat -0.11 | tipifarnib 0.104 | [7] 0.01 | [6] -0.008

MARF1 (UniProt Q9Y4F3)
inactive: pictilisib -0.212 | crizotinib -0.021 | [1] 0.035 | duvelisib -0.002 | gandotinib -0.1 | tozasertib -0.032 | doramapimod -0.004 | bafetinib -0.012 | [2] 0.095 | nilotinib -0.064 | [4] 0.024 | dasatinib -0.031 | [5] 0.031 | [3] -0.03 | quisinostat -0.053 | tipifarnib -0.062 | [7] 0.088 | [6] -0.035

MAPK15 (UniProt Q8TD08)
inactive: crizotinib -0.294 | duvelisib 0.129 | doramapimod 0.034 | nilotinib -0.138 | [4] 0.166 | dasatinib -0.07 | [5] 0.479 | [3] -0.03 | quisinostat -0.409 | tipifarnib -0.076 | [7] -0.024 | [6] -0.163

MAOA (UniProt P21397)
inactive: duvelisib 0.182 | dasatinib -1.15 | [3] 0.055

MAPK3 (UniProt H0YEX6)
inactive: nilotinib -0.522 | [4] 0.646 | [5] 0.12 | tipifarnib 0.097

MACF1, A0A5F9ZGX0
inactive: [1] 0.044 | gandotinib -0.08 | [2] 0.063

MARCHF7 (UniProt Q9H992)
inactive: duvelisib -0.216 | dasatinib -0.068 | [3] 0.055

LYN isoform 2 (UniProt P07948)
inactive: crizotinib 0.049 | [1] 0.026 | duvelisib -0.357 | tozasertib 0.126 | doramapimod -0.076 | [2] -0.006 | nilotinib 0.125 | [4] 0.143 | dasatinib 0.438 | [5] 0.257 | [3] 0.061 | quisinostat -0.111 | tipifarnib -0.615 | [7] 0.748 | [6] -0.053
active: gandotinib 0.891

LY6D (UniProt Q14210)
inactive: duvelisib -0.51 | dasatinib 0.482 | [3] -0.359

MAGEA12 (UniProt P43365)
inactive: crizotinib -0.078 | [1] 0.046 | gandotinib -0.007 | tozasertib 0.036 | doramapimod 0.046 | [2] 0.048 | quisinostat 0.099 | [7] 0.066

2 records drawn at random from those above:
LYL1 (UniProt P12980)
inactive: pictilisib -0.158 | crizotinib -0.019 | [1] -0.205 | gandotinib 0.079 | doramapimod -0.104 | bafetinib -0.123 | [2] 0.129 | quisinostat -0.101 | [7] 0.076 | [6] 0.131

MACF1, A0A5F9ZGX0
inactive: [1] 0.044 | gandotinib -0.08 | [2] 0.063
